Assay results: article PMC12564220
Results are given in words; binding and its absence hold for the method and conditions named. In cells and extracts the contact can be indirect. Binding calls can cover weak binding; strength is not graded here. Sequences can lack the tags named with a protein.

By UniProt entry, the sequences of proteins in these tests, tags left out. Where a name states a change or a piece, a line headed by the entry shows the natural chain unless it says otherwise.
UniProt Q86TM6: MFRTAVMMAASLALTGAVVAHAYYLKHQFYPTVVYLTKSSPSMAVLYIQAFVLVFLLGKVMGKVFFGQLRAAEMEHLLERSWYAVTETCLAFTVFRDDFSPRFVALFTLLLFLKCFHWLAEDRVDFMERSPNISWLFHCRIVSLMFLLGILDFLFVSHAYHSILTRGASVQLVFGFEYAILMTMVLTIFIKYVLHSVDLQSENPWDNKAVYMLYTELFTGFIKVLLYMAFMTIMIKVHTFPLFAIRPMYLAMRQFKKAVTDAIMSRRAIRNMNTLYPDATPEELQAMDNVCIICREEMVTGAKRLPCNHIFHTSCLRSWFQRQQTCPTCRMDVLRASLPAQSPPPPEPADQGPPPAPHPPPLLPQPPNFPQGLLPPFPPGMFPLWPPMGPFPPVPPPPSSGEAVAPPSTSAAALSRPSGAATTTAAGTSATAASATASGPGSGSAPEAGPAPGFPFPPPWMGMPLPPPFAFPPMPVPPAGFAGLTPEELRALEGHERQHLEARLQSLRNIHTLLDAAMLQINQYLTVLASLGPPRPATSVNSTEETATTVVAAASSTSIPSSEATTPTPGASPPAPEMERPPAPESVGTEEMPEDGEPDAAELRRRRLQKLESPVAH

Biological target: T1, H2aG78R uncleavable mutant fused through its C-terminus to a 38-amino acid streptavidin binding peptide (human) (UniProt P07307)
T1 sequence: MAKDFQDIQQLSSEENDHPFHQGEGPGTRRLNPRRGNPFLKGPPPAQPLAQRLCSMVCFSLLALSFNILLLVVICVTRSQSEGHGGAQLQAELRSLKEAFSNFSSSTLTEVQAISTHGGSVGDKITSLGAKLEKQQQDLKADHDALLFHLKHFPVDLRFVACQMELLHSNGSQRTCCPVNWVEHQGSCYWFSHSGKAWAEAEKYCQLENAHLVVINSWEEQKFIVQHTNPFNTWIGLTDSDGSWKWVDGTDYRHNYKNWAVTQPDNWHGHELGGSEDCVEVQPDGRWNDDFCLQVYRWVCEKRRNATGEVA
Test: pull-down; H2aSBP precipitated with streptavidin-agarose beads from lysates of SBP6 cells transfected with mutHRD1-myc, treated or not for 4 h with 20 μM MG132; elution with biotin; immunoblot with anti-H2a or anti-myc; control HEK293 cells without H2aSBP

binding: binds
Substance: dominant negative mutant hsHRD1-myc (from UniProt Q86TM6) (enzyme)
